These results are taken from patent US3972773 (dated 1976).

*: point of attachment. Cbz = O=C(OCc1ccccc1)*; Boc = CC(C)(C)OC(=O)*

The nature of one data set: general procedure: solution-phase peptide synthesis; pepsin (enzymatic fragment condensation in citric acid buffer, pH 4.0). The following applies: coupling step.
For pMZ-Ala-Phe-Phe-Gly-OCH3, the step yield was 94.9%.

In turn, pMZ-Ala-Leu-Phe-Gly-OEt displayed a step yield of 54.5%.

The substance pMZ-Ala-Phe-Ileu-Gly-Leu-Met-NHDmB showed a step yield of 82.2%.

For the substance α,ω-Boc-Lys-Phe-Ileu-Gly-Leu-Met-NH2, the step yield was found to be 94.4%.

pMZ-Ala-Tyr-Phe-Gln-NHNH2 displayed a step yield of 57.8%.

Turning to BOC-Gly-Val-Phe-Phe-Gly-OC2 H5, the step yield turned out to be 45.1%.

Take pMZ-Ala-Phe-Ileu-Gly-Leu-Met-NH2: the step yield came to 90%.

pMZ-Ala-Phe-Phe-Gly-Leu-Met-NH2: the step yield was 89.2%.

Substance Z-Pro-Val-Phe-Phe-Gly-OC2 H5 displayed a step yield of 67.2%.

Substance pMZ-Gly-Val-Phe-Phe-OCH3 showed a step yield of 74.3%.

On to pMZ-Ala-Phe-Phe-Gly-NHNH2, for which the step yield was found to be 61.2%.

In turn, BOC-Pro-Val-Phe-Phe-Gly-OC2 H5 returned a step yield of 34.4%.

The substance pMZ-Ala-Phe-Ala-Phe-Leu-Met-NH-DMB came in with a step yield of 70%.

Consider BOC-Asn-Ala-Phe-Ileu-Gly-Leu-Met-NH2, for which the step yield is reported as 81.0%.

As for pMZ-Ala-Phe-Ala-Phe-Ileu-Gly-OEt, the step yield is given as 63%.

In the case of pMZ-Gly-Val-Phe-Phe-Gly-OC2 H5, the step yield was 75.0%.

For the substance pMZ-Ala-Phe-Leu-Met-NH2, the step yield is recorded as 63.3%.

pMZ-Gln-Ala-Phe-Ileu-Gly-Leu-Met-NH2 returned a step yield of 74.5%.

In turn, pMZ-Gln-Phe-Phe-Gly-Leu-Met-NH2 had a step yield of 77.5%.

For the substance Boc-Ala-Phe-Ileu-Gly-Leu-Met-NH2, the step yield is reported as 63.3%.

The substance α, ω-Boc-Lys-Phe-Phe-Gly-Leu-Met-NH2 came in with a step yield of 88.2%.

The same data set, now with this note: coupling step; run 1.
Cbz-PVFF-OMe registered a step yield of 37.2%.

In turn, Boc-GVFF-OMe displayed a step yield of 71.2%.

The data set is the same for the next values; noted with them: coupling step; run 2.
In turn, Cbz-PVFF-OMe displayed a step yield of 51%.

For the substance Boc-GVFF-OMe, the step yield was determined as 73.3%.

Still in this data set, the particulars now being: coupling step; run 3.
Turning to Boc-GVFF-OMe, the step yield is given as 68%.

The same data set, now with this note: late stage modification step, 2HCl.
In turn, 2HCl.H-Lys-Phe-Phe-Gly-Leu-Met-NH2 gave a step yield of 78.0%.
